Test results reported in PubChem BioAssay AID248 (DTP/NCI, 2004).
The list is a part of this screen's results and no random one: it gathers tests that were run many times, whatever their T/C, doses with no T/C, and many T/C values between a quarter and a half above the control. Other doses and runs of a compound stand elsewhere. T/C is the treated group as % of the vehicle group. Some doses have a count of surviving animals in place of a T/C: the source files T/C as zero there, which appears to mark a toxic dose or a test without result, not a measured value. Some doses without a T/C left all or most animals alive at the check, yet need not have been tolerated: survival well below the control is almost never listed, so the zero probably covers shortened survival too. Counts of survivors are from the toxicity check (mostly the fifth day) where no day follows; animals may have died later. Schedule codes are those of the source, read here as Q, the interval in days (D) or hours (H), X, the number of doses. Some schedules carry Z or #; the key to these is not given. Some doses were run more than once; the values are given in rising order. Where survival is the endpoint, the PubChem record calls one and a half times the control and up active, and a quarter to a half above the control has no call in these data; cut-offs in other NCI protocols can differ. Some T/C values carry the count of animals alive at the toxicity check (mostly the fifth day); where none is given, no animal had died by that day.

Test system: L1210 leukemia ip in BDF1 mice, survival T/C
Assay: NCI In Vivo Anticancer Drug Screen. Data for tumor model L1210 Leukemia (intraperitoneal) in B6D2F1 (BDF1) mice
Details: T/C endpoint: mean survival time, higher T/C = longer survival
[1] = dose: 400.0 mg/kg/injection, schedule: Q04DX003 (ip), vehicle: saline
[2] = dose: 100.0 mg/kg/injection, schedule: Q04DX002 (ip), vehicle: saline with Tween-80
[3] = dose: 200.0 mg/kg/injection, schedule: Q04DX002 (ip), vehicle: saline with Tween-80
[4] = dose: 400.0 mg/kg/injection, schedule: Q04DX002 (ip), vehicle: saline with Tween-80
[5] = dose: 4.0 mg/kg/injection, schedule: Q01DX001 (ip), vehicle: saline
[6] = dose: 100.0 mg/kg/injection, schedule: Q04DX003 (ip), vehicle: saline
[7] = dose: 200.0 mg/kg/injection, schedule: Q04DX003 (ip), vehicle: saline

With `O=NN(CCCl)C(=O)Nc1ccc(Cl)c(Cl)c1` the T/C (dose: 12.0 mg/kg/injection, schedule: Q01DX009 (ip), vehicle: carboxymethylcellulose (CMC)) was 127 % of control, the T/C (dose: 17.0 mg/kg/injection, schedule: Q01DX009 (ip), vehicle: carboxymethylcellulose (CMC)) was 137 % of control and the T/C (dose: 17.0 mg/kg/injection, schedule: Q01DX015 (ip), vehicle: carboxymethylcellulose (CMC)) was 143 % of control. The survivor count (dose: 58.0 mg/kg/injection, schedule: Q01DX015 (ip), vehicle: carboxymethylcellulose (CMC)) was 6 of 6, the T/C (dose: 88.0 mg/kg/injection, schedule: Q01DX001 (ip), vehicle: carboxymethylcellulose (CMC)) was 143 % of control and the survivor count (dose: 88.0 mg/kg/injection, schedule: Q01DX015 (ip), vehicle: carboxymethylcellulose (CMC)) was 4 of 6. For the same compound, the T/C (dose: 133.0 mg/kg/injection, schedule: Q01DX001 (ip), vehicle: carboxymethylcellulose (CMC)) was 140 % of control, the survivor count (dose: 133.0 mg/kg/injection, schedule: Q01DX015 (ip), vehicle: carboxymethylcellulose (CMC)) was 2 of 6 and the T/C (dose: 200.0 mg/kg/injection, schedule: Q01DX001 (ip), vehicle: carboxymethylcellulose (CMC)) was 143 % of control. The survivor count (dose: 200.0 mg/kg/injection, schedule: Q01DX015 (ip), vehicle: carboxymethylcellulose (CMC)) was 0 of 6 and the T/C (dose: 400.0 mg/kg/injection, schedule: Q01DX001 (ip), vehicle: carboxymethylcellulose (CMC)) was 131 % of control.
With `Cc1cc(=O)oc2cc(OC(=O)Nc3ccc(F)c([N+](=O)[O-])c3)ccc12` the survivor count (dose: 400.0 mg/kg/injection, schedule: Q01DX009 (ip), vehicle: Klucel (hydroxypropylcellulose) (HPC)) was 2 of 6.
With `CCN(CC)CC(C)OC(=O)c1ccc(N)cc1` (configuration not stated) the survivor count [1] was 1 of 6.
For `S=C(Nc1ccc(Cl)c(Cl)c1)SCc1ccc2c(c1)OCO2`, the T/C (dose: 75.0 mg/kg/injection, schedule: Q01DX009 (ip), vehicle: saline) was 130 % of control.
`CCc1c(CNc2ccc(C(=O)NC(CCC(=O)O)C(=O)O)cc2)ccc2nc(N)nc(N)c12` (configuration not stated) was tested, and the survivor count (dose: 0.03 mg/kg/injection, schedule: Q01DX009 (ip), vehicle: saline) was 5 of 6, the survivor count (dose: 0.06 mg/kg/injection, schedule: Q01DX009 (ip), vehicle: saline) was 6 of 6 and the survivor count (dose: 0.12 mg/kg/injection, schedule: Q01DX009 (ip), vehicle: saline) was 6 of 6. For the same compound, the survivor count (dose: 0.25 mg/kg/injection, schedule: Q01DX003 (ip), vehicle: saline) was 6 of 6, the survivor count (dose: 0.5 mg/kg/injection, schedule: Q01DX003 (ip), vehicle: saline) was 6 of 6 and the survivor count (dose: 1.0 mg/kg/injection, schedule: Q01DX009 (ip), vehicle: saline) was 5 of 6. The survivor count (dose: 2.0 mg/kg/injection, schedule: Q01DX009 (ip), vehicle: saline) was 6 of 6, the survivor count (dose: 8.0 mg/kg/injection, schedule: Q01DX009 (ip), vehicle: saline) was 6 of 6 and the survivor count (dose: 16.0 mg/kg/injection, schedule: Q01DX009 (ip), vehicle: saline) was 6 of 6. The survivor count (dose: 20.0 micrograms/kg/injection, schedule: Q01DX009 (ip), vehicle: saline) was 5 of 6.
With `CCC(C)C(C(=O)OCCN(CC)CC)c1ccccc1` (configuration not stated) the survivor count (dose: 400.0 mg/kg/injection, schedule: Q04DX003 (ip), vehicle: Klucel (hydroxypropylcellulose) (HPC)) was 1 of 6.
For `C=C(C)C1(CCCC)C(=O)NC(=S)NC1=O`, the survivor count (dose: 300.0 mg/kg/injection, schedule: Q01DX001 (ip), vehicle: saline) was 1 of 6.
With `Nc1[nH]c(=O)ncc1-c1ccccc1Cl` the T/C [2] was 93, 97, 107 % of control, the survivor count [2] was 0 of 3 and the survivor count (dose: 200.0 mg/kg/injection, schedule: Q01DX001 (ip), vehicle: saline with Tween-80) was 2 of 6. The survivor count [3] was 0 of 3 and 0 of 6 and the survivor count [4] was 0 of 3 and 0 of 6.
For `CCC1/C=C/C=C/CC(C)C(O)C(C)(O)C(=O)C(C)C(O)C(C)C(=O)C(C)C(O)C(C)/C=C/C(=O)OC2C(C)C(CC1)OC1(OC(CC(C)O)C(C)CC1=O)C2C` (configuration not stated) (tested in a mixture with another compound), the T/C (dose: 0.31 mg/kg/injection, schedule: Q01DX009 (ip), vehicle: saline with Tween-80) was 136 % of control, the T/C (dose: 0.47 mg/kg/injection, schedule: Q01DX009 (ip), vehicle: saline) was 142 % of control and the T/C (dose: 0.65 mg/kg/injection, schedule: Q01DX001 (ip), vehicle: saline) was 125 % of control. For the same compound, the survivor count (dose: 0.65 mg/kg/injection, schedule: Q04DX003 (ip), vehicle: saline) was 0 of 6, the T/C (dose: 0.7 mg/kg/injection, schedule: Q01DX009 (ip), vehicle: saline with Tween-80) was 125 % of control and the survivor count (dose: 0.72 mg/kg/injection, schedule: Q01DX009 (ip), vehicle: saline) was 0 of 6. For the same compound, the T/C (dose: 1.0 mg/kg/injection, schedule: Q01DX Z (ip), vehicle: other) was 126 % of control, the T/C (dose: 1.0 mg/kg/injection, schedule: Q01DX Z (ip), vehicle: saline) was 135 % of control and the survivor count (dose: 1.08 mg/kg/injection, schedule: Q01DX009 (ip), vehicle: saline) was 0 of 6. For the same compound, the survivor count (dose: 1.3 mg/kg/injection, schedule: Q01DX001 (ip), vehicle: saline) was 1 of 6, the T/C (dose: 1.5 mg/kg/injection, schedule: Q01DX Z (ip), vehicle: saline) was 127 % of control and the T/C (dose: 2.0 mg/kg/injection, schedule: Q01DX001 (ip), vehicle: saline) was 132 % of control. For the same compound, the survivor count (dose: 2.3 mg/kg/injection, schedule: Q01DX Z (ip), vehicle: saline) was 5 of 6, the survivor count (dose: 2.6 mg/kg/injection, schedule: Q01DX001 (ip), vehicle: saline) was 0 of 6 and the survivor count (dose: 3.4 mg/kg/injection, schedule: Q01DX Z (ip), vehicle: saline) was 1 of 6. For the same compound, the T/C [5] was 128 % of control [4 of 6 alive], the survivor count [5] was 0 of 6 and the survivor count (dose: 5.0 mg/kg/injection, schedule: Q01DX Z (ip), vehicle: saline) was 0 of 6. The survivor count (dose: 6.0 mg/kg/injection, schedule: Q01DX001 (ip), vehicle: saline) was 0 of 6, the survivor count (dose: 8.0 mg/kg/injection, schedule: Q01DX001 (ip), vehicle: saline) was 2 of 6 and the survivor count (dose: 12.0 mg/kg/injection, schedule: Q01DX Z (ip), vehicle: methylcellulose (MC)) was 5 of 6. The survivor count (dose: 16.0 mg/kg/injection, schedule: Q01DX Z (ip), vehicle: methylcellulose (MC)) was 1 of 6.
For `CCCCCCCCCCCCCCCC(=O)Oc1ccc(/C(CC)=C(/CC)c2ccc(OC(=O)CCCCCCCCCCCCCCC)cc2)cc1`, the survivor count (dose: 100.0 mg/kg/injection, schedule: Q01DX009 (ip), vehicle: saline with Tween-80) was 6 of 6.
With `O=C1OC(=O)C(Cl)=C1Cl` the survivor count [3] was 2 of 3 and the survivor count [4] was 1 of 3.
`CCCCCCCCN1CCCNCC1` was tested, and the survivor count (dose: 50.0 mg/kg/injection, schedule: Q01DX009 (ip), vehicle: saline) was 3 of 6, the survivor count [6] was 2 of 6 and the survivor count [7] was 0 of 6. The survivor count [1] was 0 of 6.
In the case of `CCOC(=O)/C=C1\CCCc2ccc(Cl)cc21`, the survivor count [3] is reported as 3 of 3.
In the case of `C[N+](C)(CCCCCCCCCC[N+](C)(C)CC(=O)c1ccccc1)CC(=O)c1ccccc1`, the survivor count [6] is reported as 0 of 6, the survivor count [7] is reported as 0 of 6 and the survivor count [1] is reported as 0 of 6.
`CCCCCCCCCCCCCCCCC/C=N\NC(=O)CCCC(=O)N/N=C/CCCCCCCCCCCCCCCCC` was tested, and the survivor count (dose: 100.0 mg/kg/injection, schedule: Q01DX001 (ip), vehicle: other) was 4 of 4 and the survivor count (dose: 400.0 mg/kg/injection, schedule: Q01DX001 (ip), vehicle: other) was 4 of 4.
`COC(=O)Nc1cccc(NC(=O)C(=O)O)c1` was tested, and the survivor count (dose: 400.0 mg/kg/injection, schedule: Q04DX003 (ip), vehicle: saline with Tween-80) was 2 of 6.
